# According to paper PMC12148940:
# Protein sequences, listed by entry. Tags and fused reporters are not part of them.
# UniProt Q13148: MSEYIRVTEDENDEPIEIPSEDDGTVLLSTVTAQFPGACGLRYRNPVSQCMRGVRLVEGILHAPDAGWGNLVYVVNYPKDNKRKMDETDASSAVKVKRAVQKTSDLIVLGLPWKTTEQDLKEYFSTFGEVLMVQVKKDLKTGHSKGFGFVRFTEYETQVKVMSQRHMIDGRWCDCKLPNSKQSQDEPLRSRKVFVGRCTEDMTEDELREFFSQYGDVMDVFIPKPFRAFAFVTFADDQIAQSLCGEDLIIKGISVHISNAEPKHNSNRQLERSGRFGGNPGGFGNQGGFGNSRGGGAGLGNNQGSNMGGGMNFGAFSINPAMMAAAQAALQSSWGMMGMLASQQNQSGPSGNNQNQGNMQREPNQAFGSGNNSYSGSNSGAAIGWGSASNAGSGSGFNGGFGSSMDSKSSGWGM
# Results are given in words; binding and its absence hold for the method and conditions named. In cells and extracts the contact can be indirect. These calls come from enrichment with a bait or labelling near it, and not all partners need be listed. For some of these results: No binding means not detected with the bait.
# B1: staufen-2 (protein, UniProt Q9NUL3 1-570)
# chain: MANPKEKTAMCLVNELARFNRVQPQYKLLNERGPAHSKMFSVQLSLGEQTWESEGSSIKKAQQAVANKALTESTLPKPVQKPPKSNVNNNPGSITPTVELNGLAMKRGEPAIYRPLDPKPFPNYRANYNFRGMYNQRYHCPVPKIFYVQLTVGNNEFFGEGKTRQAARHNAAMKALQALQNEPIPERSPQNGESGKDVDDDKDANKSEISLVFEIALKRNMPVSFEVIKESGPPHMKSFVTRVSVGEFSAEGEGNSKKLSKKRAATTVLQELKKLPPLPVVEKPKLFFKKRPKTIVKAGPEYGQGMNPISRLAQIQQAKKEKEPDYVLLSERGMPRRREFVMQVKVGNEVATGTGPNKKIAKKNAAEAMLLQLGYKASTNLQDQLEKTGENKGWSGPKPGFPEPTNNTPKGILHLSPDVYQEMEASRHKVISGTTLGYLSPKDMNQPSSSFFSISPTSNSSATIARELLMNGTSSTAEAIGLKGSSPTPPCSPVQPSKQLEYLARIQGFQAALSALKQFSEQGLDPIDGAMNIEKGSLEKQAKHLREKADNNQAPPGSIAQDCKKSNSAV
# B2: FAF2 (protein, UniProt Q96CS3 1-445)
# chain: MAAPEERDLTQEQTEKLLQFQDLTGIESMDQCRHTLEQHNWNIEAAVQDRLNEQEGVPSVFNPPPSRPLQVNTADHRIYSYVVSRPQPRGLLGWGYYLIMLPFRFTYYTILDIFRFALRFIRPDPRSRVTDPVGDIVSFMHSFEEKYGRAHPVFYQGTYSQALNDAKRELRFLLVYLHGDDHQDSDEFCRNTLCAPEVISLINTRMLFWACSTNKPEGYRVSQALRENTYPFLAMIMLKDRRMTVVGRLEGLIQPDDLINQLTFIMDANQTYLVSERLEREERNQTQVLRQQQDEAYLASLRADQEKERKKREERERKRRKEEEVQQQKLAEERRRQNLQEEKERKLECLPPEPSPDDPESVKIIFKLPNDSRVERRFHFSQSLTVIHDFLFSLKESPEKFQIEANFPRRVLPCIPSEEWPNPPTLQEAGLSHTEVLFVQDLTDE
# B3: G3BP2 (protein, UniProt Q9UN86 1-482)
# chain: MVMEKPSPLLVGREFVRQYYTLLNKAPEYLHRFYGRNSSYVHGGVDASGKPQEAVYGQNDIHHKVLSLNFSECHTKIRHVDAHATLSDGVVVQVMGLLSNSGQPERKFMQTFVLAPEGSVPNKFYVHNDMFRYEDEVFGDSEPELDEESEDEVEEEQEERQPSPEPVQENANSGYYEAHPVTNGIEEPLEESSHEPEPEPESETKTEELKPQVEEKNLEELEEKSTTPPPAEPVSLPQEPPKAFSWASVTSKNLPPSGTVSSSGIPPHVKAPVSQPRVEAKPEVQSQPPRVREQRPRERPGFPPRGPRPGRGDMEQNDSDNRRIIRYPDSHQLFVGNLPHDIDENELKEFFMSFGNVVELRINTKGVGGKLPNFGFVVFDDSEPVQRILIAKPIMFRGEVRLNVEEKKTRAARERETRGGGDDRRDIRRNDRGPGGPRGIVGGGMMRDRDGRGPPPRGGMAQKLGSGRGTGQMEGRFTGQRR
# What was measured:
# [1] = target: G3BP1 (human (endogenous in neurons made from human fibroblasts or iPSCs)) (UniProt Q13283); test: affinity purification with mass spectrometry; G3BP1 antibody on anti-rabbit IgG Dynabeads, ~3 mg lysate protein, 16 h at 4 °C; IP lysis buffer 50 mM Tris-HCl pH 7.4, 150 mM NaCl, 1 mM EDTA, 0.5% IGEPAL-CA630; lysates of iPSC-derived neurons (unstressed or 1 h sodium arsenite) and transdifferentiated neurons compared, n = 2
# [2] = target: G3BP1 (human (endogenous in neurons made from human fibroblasts or iPSCs)) (UniProt Q13283); test: condition: only in transdifferentiated (aged) neurons; affinity purification with mass spectrometry; G3BP1 antibody on Dynabeads, same buffers; lysate of transdifferentiated (aged) neurons only
# [3] = target: TDP-43 (human (endogenous in neurons made from human fibroblasts or iPSCs)) (UniProt Q13148); test: affinity purification with mass spectrometry; TDP-43 antibody on anti-rabbit IgG Dynabeads, ~3 mg lysate protein, 16 h at 4 °C; IP lysis buffer 50 mM Tris-HCl pH 7.4, 150 mM NaCl, 1 mM EDTA, 0.5% IGEPAL-CA630; lysates of iPSC-derived neurons (unstressed or 1 h sodium arsenite) and transdifferentiated neurons compared, n = 2
Binder,binding [1],binding [2],binding [3]
B1,binds,–,–
B2,binds,no binding,–
B3,–,–,binds
